The list shows a part of the results. Repeats are few or missing, and single values can be far off.

The test system of the assay is Saccharomyces cerevisiae BY4743. Briefly: growth (OD600) relative to untreated control; higher = less growth inhibition. As to conditions: compound concentration: 133 uM; 20 h. How it is done: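 NMCCC compounds (133 uM, no IPBC) tested alone against Saccharomyces cerevisiae BY4743 in YPD, 96-well plates, starting OD600 ~0.1. Growth was read as OD600 at 20 h and expressed as % of the untreated control. Single pass.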
The molecule `Cc1oc(-c2cccs2)nc1COC(=O)c1csc(S(N)(=O)=O)c1` had a growth of 114%. Under `COc1cc(NC(=O)c2cc(S(=O)(=O)N3CCCC3)c(Cl)cc2Cl)ccc1OC(F)F` stands 100%; under `COc1ccc(CNS(=O)(=O)c2cc3nc(O)c(O)nc3cc2C)cc1`, 100%.

In turn, `CCCCn1c(SCc2ccccn2)nc2cc(S(=O)(=O)N(C)C)ccc21` returned a growth of 106%. Molecule `Cc1cnc(NC(=O)CSc2nnc(CN3CCOCC3)n2C)s1` returned a growth of 101%. The molecule `CC(=O)NC1=CC=C(C=C1)C(=O)CO\C2=C\O\C(=C/C2=O)CN3CCSCC3` registered a growth of 108%. The value for `COC1=CC=C(F)C=C1CN2\C=N/C3=C(C(=C(C)S3)C)C2=O` was 98.7%; that for `COc1ccc(-n2ccnc2SCC(=O)NCC2CN(CC(C)C)CCO2)cc1` (stereo unspecified) was 103%. Turning to `CC(C)NC(=O)CNC(=O)CSc1nnc(NCc2ccc(F)cc2)s1`, the growth worked out at 112%. The value for `O=C(Cc1csc(NC(=O)NC2CCCC2)n1)Nc1ccc(Cl)c(Cl)c1` was 97.3%; that for `O=C(NCc1ccco1)C1(S(=O)(=O)c2ccccc2)CCCC1` was 108%. Consider `Cc1cc(C(F)(F)F)n2ncc(-c3cccc(Br)c3)c2n1`, for which the growth came to 88.9%. The value for `COc1ccccc1OCCn1c(=O)oc2ccc(C)cc21` was 107%; that for `CCOc1ccc2nc(SC3CCOC3=O)sc2c1` (stereo unspecified) was 98.2%. Under `CCC(C(=O)N(CC)Cc1ccc2c(c1)OCCO2)c1ccccc1` (stereo unspecified) stands 94%. `CCS(=O)(=O)N1Cc2ccccc2CC1C(=O)Nc1ccc(Br)cc1F` (stereo unspecified): the growth worked out at 104%.

These data come from the supplement of paper PMC8007513.
